Measured values published in the supplement of paper PMC10849652.
This is one part of the list.

Protein sequences, listed by entry. Tags and fused reporters are not part of them. Lines headed by an entry give the natural chain unless they say otherwise; changes in a name come on top.
UniProt Q8IX12: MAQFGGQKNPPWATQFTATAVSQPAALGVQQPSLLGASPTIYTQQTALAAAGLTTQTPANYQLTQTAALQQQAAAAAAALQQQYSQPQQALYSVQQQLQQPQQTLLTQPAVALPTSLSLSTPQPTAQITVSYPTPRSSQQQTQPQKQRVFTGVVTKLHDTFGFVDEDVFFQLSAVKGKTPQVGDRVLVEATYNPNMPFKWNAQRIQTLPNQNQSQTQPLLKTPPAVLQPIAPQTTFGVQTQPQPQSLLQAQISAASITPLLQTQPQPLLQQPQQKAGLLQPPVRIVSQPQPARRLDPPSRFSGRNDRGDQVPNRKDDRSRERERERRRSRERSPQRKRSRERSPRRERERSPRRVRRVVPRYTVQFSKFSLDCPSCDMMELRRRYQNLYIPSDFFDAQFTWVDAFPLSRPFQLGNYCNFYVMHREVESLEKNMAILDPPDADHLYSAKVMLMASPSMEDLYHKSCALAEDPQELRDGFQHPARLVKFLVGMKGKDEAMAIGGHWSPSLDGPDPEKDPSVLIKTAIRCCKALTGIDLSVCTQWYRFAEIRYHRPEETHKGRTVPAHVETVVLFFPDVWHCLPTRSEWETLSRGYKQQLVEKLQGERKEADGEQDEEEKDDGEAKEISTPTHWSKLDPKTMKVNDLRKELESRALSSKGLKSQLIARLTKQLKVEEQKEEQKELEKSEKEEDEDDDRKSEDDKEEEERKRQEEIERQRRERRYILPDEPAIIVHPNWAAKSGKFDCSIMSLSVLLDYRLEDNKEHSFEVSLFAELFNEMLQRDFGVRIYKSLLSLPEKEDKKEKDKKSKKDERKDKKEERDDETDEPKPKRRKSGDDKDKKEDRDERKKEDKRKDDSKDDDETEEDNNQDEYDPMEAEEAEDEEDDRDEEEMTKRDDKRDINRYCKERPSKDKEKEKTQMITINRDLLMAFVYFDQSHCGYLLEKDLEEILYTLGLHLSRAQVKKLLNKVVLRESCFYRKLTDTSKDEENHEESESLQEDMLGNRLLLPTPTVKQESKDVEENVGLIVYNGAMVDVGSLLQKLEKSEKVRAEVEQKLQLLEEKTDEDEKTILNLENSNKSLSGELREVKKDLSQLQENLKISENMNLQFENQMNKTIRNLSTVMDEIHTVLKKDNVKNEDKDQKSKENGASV
UniProt Q99832: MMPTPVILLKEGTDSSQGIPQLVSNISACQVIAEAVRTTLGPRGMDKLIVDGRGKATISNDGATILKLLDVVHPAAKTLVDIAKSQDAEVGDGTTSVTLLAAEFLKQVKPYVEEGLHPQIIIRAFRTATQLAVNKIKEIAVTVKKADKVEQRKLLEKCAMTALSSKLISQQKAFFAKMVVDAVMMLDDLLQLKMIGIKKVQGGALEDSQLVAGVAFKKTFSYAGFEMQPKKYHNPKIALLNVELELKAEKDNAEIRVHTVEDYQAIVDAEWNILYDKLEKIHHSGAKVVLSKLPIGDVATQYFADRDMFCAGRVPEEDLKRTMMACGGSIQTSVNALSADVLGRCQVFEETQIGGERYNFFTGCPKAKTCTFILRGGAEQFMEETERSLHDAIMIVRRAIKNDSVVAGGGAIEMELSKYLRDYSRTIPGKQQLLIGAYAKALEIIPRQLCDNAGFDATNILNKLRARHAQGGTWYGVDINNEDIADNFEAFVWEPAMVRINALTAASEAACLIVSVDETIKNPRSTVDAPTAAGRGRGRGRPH
UniProt P19256, whole entry, looked up: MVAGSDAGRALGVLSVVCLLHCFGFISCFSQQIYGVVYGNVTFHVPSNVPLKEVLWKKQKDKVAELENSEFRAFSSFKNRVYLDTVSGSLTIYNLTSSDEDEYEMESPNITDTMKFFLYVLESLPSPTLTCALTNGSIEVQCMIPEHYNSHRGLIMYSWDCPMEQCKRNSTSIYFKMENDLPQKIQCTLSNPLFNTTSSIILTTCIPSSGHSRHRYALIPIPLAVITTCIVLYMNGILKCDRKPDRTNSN
UniProt Q96A33: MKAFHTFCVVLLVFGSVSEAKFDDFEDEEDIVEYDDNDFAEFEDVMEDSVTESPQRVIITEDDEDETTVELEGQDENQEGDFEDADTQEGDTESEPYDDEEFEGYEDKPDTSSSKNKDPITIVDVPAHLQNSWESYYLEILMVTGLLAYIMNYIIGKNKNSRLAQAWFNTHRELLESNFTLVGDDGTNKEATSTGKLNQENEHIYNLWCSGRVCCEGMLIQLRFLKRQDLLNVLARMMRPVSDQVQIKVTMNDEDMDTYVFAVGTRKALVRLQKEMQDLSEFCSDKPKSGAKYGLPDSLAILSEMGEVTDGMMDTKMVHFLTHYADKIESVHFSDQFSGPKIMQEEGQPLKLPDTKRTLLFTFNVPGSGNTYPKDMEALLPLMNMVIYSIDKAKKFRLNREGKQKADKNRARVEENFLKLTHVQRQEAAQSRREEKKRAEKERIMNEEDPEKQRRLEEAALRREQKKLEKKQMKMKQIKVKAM
UniProt Q96MW1: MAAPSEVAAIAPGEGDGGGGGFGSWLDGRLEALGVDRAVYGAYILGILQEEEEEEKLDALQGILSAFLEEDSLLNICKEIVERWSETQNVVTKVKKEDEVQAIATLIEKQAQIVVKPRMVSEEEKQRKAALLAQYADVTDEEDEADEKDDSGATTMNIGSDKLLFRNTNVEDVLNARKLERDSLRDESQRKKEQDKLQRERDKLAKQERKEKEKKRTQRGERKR
UniProt Q16204: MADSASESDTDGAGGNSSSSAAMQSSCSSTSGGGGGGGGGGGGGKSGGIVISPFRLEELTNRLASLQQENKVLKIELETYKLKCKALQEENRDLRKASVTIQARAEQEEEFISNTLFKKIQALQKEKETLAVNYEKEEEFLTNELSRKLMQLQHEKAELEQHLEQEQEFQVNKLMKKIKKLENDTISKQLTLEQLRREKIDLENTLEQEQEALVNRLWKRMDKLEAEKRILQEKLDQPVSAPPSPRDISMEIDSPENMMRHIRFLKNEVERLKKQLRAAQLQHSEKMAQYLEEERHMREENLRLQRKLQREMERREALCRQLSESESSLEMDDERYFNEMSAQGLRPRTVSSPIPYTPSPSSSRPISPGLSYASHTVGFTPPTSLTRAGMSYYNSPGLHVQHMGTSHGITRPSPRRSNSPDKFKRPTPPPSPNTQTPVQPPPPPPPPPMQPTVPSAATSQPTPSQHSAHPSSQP
UniProt Q96ER9: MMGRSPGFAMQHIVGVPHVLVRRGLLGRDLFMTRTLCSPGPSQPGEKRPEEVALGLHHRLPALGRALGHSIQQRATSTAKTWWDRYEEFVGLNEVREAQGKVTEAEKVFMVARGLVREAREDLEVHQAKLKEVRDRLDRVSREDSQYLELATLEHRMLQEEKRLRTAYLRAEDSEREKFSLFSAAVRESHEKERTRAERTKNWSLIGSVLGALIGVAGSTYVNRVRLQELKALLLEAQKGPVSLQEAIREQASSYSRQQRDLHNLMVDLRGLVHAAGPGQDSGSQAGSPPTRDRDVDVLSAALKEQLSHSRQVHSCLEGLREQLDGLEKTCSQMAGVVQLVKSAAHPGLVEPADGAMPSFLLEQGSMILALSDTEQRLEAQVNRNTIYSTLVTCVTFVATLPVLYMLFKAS
UniProt P49368: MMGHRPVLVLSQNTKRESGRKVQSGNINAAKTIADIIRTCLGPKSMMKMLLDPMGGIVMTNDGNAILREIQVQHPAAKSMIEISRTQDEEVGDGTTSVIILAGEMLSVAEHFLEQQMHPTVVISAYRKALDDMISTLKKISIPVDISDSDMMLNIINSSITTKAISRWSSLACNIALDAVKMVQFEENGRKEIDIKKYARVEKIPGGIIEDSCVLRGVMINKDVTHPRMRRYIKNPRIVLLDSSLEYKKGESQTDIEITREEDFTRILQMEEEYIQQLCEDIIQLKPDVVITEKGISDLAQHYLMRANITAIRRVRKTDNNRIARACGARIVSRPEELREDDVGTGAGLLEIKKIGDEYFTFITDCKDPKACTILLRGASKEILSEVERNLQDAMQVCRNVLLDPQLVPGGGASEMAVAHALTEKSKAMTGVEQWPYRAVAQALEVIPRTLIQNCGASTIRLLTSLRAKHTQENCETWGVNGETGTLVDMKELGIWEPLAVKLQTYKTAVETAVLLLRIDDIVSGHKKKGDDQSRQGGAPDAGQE
UniProt O95067, whole entry, looked up: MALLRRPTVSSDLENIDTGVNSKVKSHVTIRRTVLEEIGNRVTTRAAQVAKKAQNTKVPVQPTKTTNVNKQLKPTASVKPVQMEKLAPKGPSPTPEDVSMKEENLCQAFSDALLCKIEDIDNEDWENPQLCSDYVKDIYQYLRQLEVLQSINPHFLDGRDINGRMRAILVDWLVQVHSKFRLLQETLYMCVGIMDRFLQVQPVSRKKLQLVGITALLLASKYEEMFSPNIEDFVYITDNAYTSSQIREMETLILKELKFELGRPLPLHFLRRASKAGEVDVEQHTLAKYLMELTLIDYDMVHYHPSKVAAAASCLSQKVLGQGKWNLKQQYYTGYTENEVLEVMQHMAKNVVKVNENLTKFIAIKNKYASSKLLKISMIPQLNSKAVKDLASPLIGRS
UniProt Q08722, whole entry, looked up: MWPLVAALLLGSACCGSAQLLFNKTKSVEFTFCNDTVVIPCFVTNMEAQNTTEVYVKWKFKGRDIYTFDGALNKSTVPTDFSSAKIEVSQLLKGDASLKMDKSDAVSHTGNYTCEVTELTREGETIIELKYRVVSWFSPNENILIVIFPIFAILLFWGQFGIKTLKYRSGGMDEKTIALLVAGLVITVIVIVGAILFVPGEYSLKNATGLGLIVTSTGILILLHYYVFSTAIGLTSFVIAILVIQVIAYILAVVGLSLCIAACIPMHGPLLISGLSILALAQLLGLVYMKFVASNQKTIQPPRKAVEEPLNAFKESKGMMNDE
UniProt Q6NZI2: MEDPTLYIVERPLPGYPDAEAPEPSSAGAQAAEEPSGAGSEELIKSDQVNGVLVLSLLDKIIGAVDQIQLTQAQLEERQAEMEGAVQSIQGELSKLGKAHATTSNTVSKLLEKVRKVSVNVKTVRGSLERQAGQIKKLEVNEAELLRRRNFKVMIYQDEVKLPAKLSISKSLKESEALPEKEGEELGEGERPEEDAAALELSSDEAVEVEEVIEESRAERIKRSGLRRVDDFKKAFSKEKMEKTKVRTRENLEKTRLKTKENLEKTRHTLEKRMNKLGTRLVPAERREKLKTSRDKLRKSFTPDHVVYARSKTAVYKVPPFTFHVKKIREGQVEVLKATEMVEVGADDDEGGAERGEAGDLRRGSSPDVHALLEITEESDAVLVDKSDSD
UniProt P04040: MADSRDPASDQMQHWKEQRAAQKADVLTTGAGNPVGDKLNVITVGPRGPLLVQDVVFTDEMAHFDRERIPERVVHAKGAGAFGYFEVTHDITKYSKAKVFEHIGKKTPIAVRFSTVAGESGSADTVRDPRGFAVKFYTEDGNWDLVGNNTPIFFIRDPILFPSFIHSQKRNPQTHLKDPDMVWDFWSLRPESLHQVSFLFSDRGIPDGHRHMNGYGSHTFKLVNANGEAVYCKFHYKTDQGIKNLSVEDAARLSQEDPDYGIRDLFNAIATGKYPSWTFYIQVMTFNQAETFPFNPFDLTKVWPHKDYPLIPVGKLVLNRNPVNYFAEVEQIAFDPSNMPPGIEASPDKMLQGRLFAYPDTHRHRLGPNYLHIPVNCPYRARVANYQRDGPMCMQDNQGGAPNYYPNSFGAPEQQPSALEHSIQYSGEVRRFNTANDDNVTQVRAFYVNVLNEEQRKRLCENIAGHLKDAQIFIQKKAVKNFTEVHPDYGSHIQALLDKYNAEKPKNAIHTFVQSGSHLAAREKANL
UniProt Q96F63: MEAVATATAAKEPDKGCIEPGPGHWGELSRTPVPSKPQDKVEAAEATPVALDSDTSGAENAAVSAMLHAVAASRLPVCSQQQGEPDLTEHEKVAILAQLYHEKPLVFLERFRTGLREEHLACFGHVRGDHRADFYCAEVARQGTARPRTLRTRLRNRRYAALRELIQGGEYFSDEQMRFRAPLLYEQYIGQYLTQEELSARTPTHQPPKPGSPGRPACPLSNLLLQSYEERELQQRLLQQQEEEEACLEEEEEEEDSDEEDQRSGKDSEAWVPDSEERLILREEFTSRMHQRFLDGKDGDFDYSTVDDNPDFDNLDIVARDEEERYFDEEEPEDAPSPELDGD
UniProt P51946: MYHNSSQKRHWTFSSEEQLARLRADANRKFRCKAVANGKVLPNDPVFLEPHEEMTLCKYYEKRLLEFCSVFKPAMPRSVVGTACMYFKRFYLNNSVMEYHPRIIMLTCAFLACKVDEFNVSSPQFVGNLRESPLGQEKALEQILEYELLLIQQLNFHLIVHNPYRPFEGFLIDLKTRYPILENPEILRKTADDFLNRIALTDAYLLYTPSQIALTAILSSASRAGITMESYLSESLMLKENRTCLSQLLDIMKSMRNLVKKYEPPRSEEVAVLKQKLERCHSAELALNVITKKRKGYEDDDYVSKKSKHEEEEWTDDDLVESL

What was measured:
Experiment in all cases: log2 fold change, soluble protein after heating vs DMSO (PISA); higher = thermal stabilisation; K562 lysate, 10 uM; active = over 0.2 and 3.5 SD of the protein, either way, in both replicates (recomputed)
vemurafenib = compound: CCCS(=O)(=O)Nc1ccc(F)c(C(=O)c2c[nH]c3ncc(-c4ccc(Cl)cc4)cc23)c1F [vemurafenib]
In short: (§1)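 The values are log-two fold changes in thermal stability compared with solvent controls and come from duplicates. They were obtained by TMTpro 16plex LC-MS/MS, with channel sums equalised, on the supernatant after 21,000xg for 90 min. That supernatant came from crude K562 extract at 1 mg/mL protein treated with 10 μM compound for 30 min, heated for 3 min across 48°C-58°C, pooled and brought to 0.5% NP-40 at 4°C.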

[1] = compound: CCCS(=O)(=O)Nc1ccc(F)c(C(=O)c2c[nH]c3ncc(Cl)cc23)c1F
In short: as §1

barasertib = compound: CCN(CCCOc1ccc2c(Nc3cc(CC(=O)Nc4cccc(F)c4)[nH]n3)ncnc2c1)CCOP(=O)(O)O [barasertib]
In short: as §1

[2] = compound: CC[C@@H]1C(=O)N(C)c2cnc(Nc3ccc(C(=O)NC4CCN(C)CC4)cc3OC)nc2N1C1CCCC1
In short: as §1

volasertib = compound: CC[C@@H]1C(=O)N(C)c2cnc(Nc3ccc(C(=O)N[C@H]4CC[C@H](N5CCN(CC6CC6)CC5)CC4)cc3OC)nc2N1C(C)C [volasertib]
In short: as §1

[3] = compound: CCn1c(C(=O)N(C2CC2)C2CC2)cc2c3c(ncn3C)c(Nc3cc(C)n(C)n3)nc21
In short: as §1

[4] = compound: CCn1cc(-c2ccnc3[nH]c(-c4cccc(CN(C)C)c4)cc23)c(-c2ccc(NC(=O)N(C)C)cc2)n1
In short: as §1

[5] = compound: CN1CCC(CNc2ccc3ncc(-c4cccc(OC(F)(F)F)c4)n3n2)CC1
In short: as §1

saracatinib = compound: CN1CCN(CCOc2cc(OC3CCOCC3)c3c(Nc4c(Cl)ccc5c4OCO5)ncnc3c2)CC1 [saracatinib]
In short: as §1

sotrastaurin = compound: CN1CCN(c2nc(C3=C(c4c[nH]c5ccccc45)C(=O)NC3=O)c3ccccc3n2)CC1 [sotrastaurin]
In short: as §1

alvocidib = compound: CN1CC[C@H](c2c(O)cc(O)c3c(=O)cc(-c4ccccc4Cl)oc23)[C@H](O)C1 [alvocidib]
In short: as §1

Tubastatin A = compound: CN1CCc2c(c3ccccc3n2Cc2ccc(C(=O)NO)cc2)C1 [Tubastatin A]
In short: as §1

[6] = compound: CNC(=O)C1=CC=CC=C1NC2=NC(=NC=C2Cl)NC3=C(C=C(C=C3)N4CCOCC4)OC
In short: as §1

defactinib = compound: CNC(=O)c1ccc(Nc2ncc(C(F)(F)F)c(NCc3nccnc3N(C)S(C)(=O)=O)n2)cc1 [defactinib]
In short: as §1

[7] = compound: CNc1nc(-c2ccc3c(N)n[nH]c3c2)cc(N2C[C@@H](C(=O)NC3CCCCC3)CC[C@H]2C)n1
In short: as §1

encorafenib = compound: COC(=O)N[C@@H](C)CNc1nccc(-c2cn(C(C)C)nc2-c2cc(Cl)cc(NS(C)(=O)=O)c2F)n1 [encorafenib]
In short: as §1

[8] = compound: COC(=O)[C@H](CCSC)NC(=O)C1=C(C=C(C=C1)NC[C@H](CS)N)C2=CC=CC=C2
In short: as §1

alisertib = compound: COc1cc(Nc2ncc3c(n2)-c2ccc(Cl)cc2C(c2c(F)cccc2OC)=NC3)ccc1C(=O)O [alisertib]
In short: as §1

[9] = compound: COc1cc2nc(-c3cc(F)ccc3O)nc(N[C@@H]3CNC[C@H]3C(C)(C)O)c2cc1OC
In short: as §1

gefitinib = compound: COc1cc2ncnc(Nc3ccc(F)c(Cl)c3)c2cc1OCCCN1CCOCC1 [gefitinib]
In short: as §1

Row | Target | log2 fold change (vemurafenib) | log2 fold change [1] | log2 fold change (barasertib) | log2 fold change [2] | log2 fold change (volasertib) | log2 fold change [3] | log2 fold change [4] | log2 fold change [5] | log2 fold change (saracatinib) | log2 fold change (sotrastaurin) | log2 fold change (alvocidib) | log2 fold change (Tubastatin A) | log2 fold change [6] | log2 fold change (defactinib) | log2 fold change [7] | log2 fold change (encorafenib) | log2 fold change [8] | log2 fold change (alisertib) | log2 fold change [9] | log2 fold change (gefitinib)
1 | CCAR1 (UniProt Q8IX12) | inactive: -0.008 | inactive: -0.012 | inactive: 0.015 | inactive: -0.006 | inactive: -0.023 | inactive: -0.004 | inactive: -0.16 | inactive: 0.015 | inactive: 0.009 | inactive: -0.021 | inactive: -0.049 | inactive: 0.017 | inactive: 0.004 | inactive: 0.019 | inactive: 0.025 | inactive: 0.001 | inactive: 0.098 | inactive: 0 | inactive: 0.01 | inactive: -0.004
2 | CCT7 (UniProt Q99832) | inactive: -0.016 | inactive: 0.013 | inactive: -0.027 | inactive: 0.021 | inactive: 0.008 | inactive: -0.01 | inactive: 0.049 | inactive: 0.002 | inactive: -0.023 | inactive: -0.011 | inactive: 0.018 | inactive: 0.038 | inactive: -0.014 | inactive: -0.005 | inactive: 0.017 | inactive: -0.019 | inactive: -0.016 | inactive: 0.001 | inactive: 0 | inactive: -0.011
3 | CD58 (UniProt P19256) | inactive: -0.09 | inactive: -0.025 | inactive: 0.02 | inactive: -0.047 | inactive: 0.021 | inactive: 0.039 | inactive: 0.048 | inactive: 0.08 | inactive: -0.01 | inactive: 0.074 | inactive: -0.041 | inactive: -0.011 | inactive: 0.008 | inactive: 0.038 | inactive: 0.043 | inactive: 0.013 | inactive: -0.076 | inactive: 0.028 | inactive: 0.002 | inactive: -0.032
4 | CCDC47 (UniProt Q96A33) | inactive: 0.011 | inactive: 0.032 | inactive: 0.002 | inactive: 0.024 | inactive: 0.014 | inactive: 0.018 | inactive: -0.02 | inactive: -0.09 | inactive: -0.003 | inactive: 0.007 | inactive: 0.009 | inactive: 0.016 | inactive: -0.015 | inactive: 0.004 | inactive: -0.028 | inactive: -0.045 | inactive: -0.037 | inactive: 0.037 | inactive: -0.035 | inactive: -0.011
5 | CARNMT1 (UniProt Q8N4J0) | inactive: 0.04 | inactive: 0.008 | inactive: -0.012 | inactive: -0.013 | inactive: -0.005 | inactive: -0.044 | active: -0.422 | inactive: 0.063 | inactive: 0.04 | inactive: 0.017 | inactive: -0.167 | inactive: 0.045 | inactive: -0.021 | inactive: -0.03 | inactive: -0.021 | inactive: 0.051 | inactive: 0.015 | inactive: -0.022 | inactive: 0.026 | inactive: 0.009
6 | CCDC43 (UniProt Q96MW1) | inactive: 0.033 | inactive: 0.023 | inactive: -0.105 | inactive: -0.028 | inactive: 0.021 | inactive: 0.049 | inactive: -0.024 | inactive: 0.058 | inactive: 0.009 | inactive: 0.012 | inactive: -0.05 | inactive: -0.028 | inactive: -0.056 | inactive: -0.054 | inactive: 0.035 | inactive: 0.019 | inactive: -0.025 | inactive: -0.004 | inactive: -0.024 | inactive: -0.011
7 | CCDC6 (UniProt Q16204) | inactive: -0.015 | inactive: 0.001 | inactive: -0.013 | inactive: 0.037 | inactive: 0.034 | inactive: 0.026 | inactive: -0.035 | inactive: 0.044 | inactive: -0.008 | inactive: -0.018 | inactive: -0.005 | inactive: 0.006 | inactive: 0.001 | inactive: 0.005 | inactive: -0.018 | inactive: 0.002 | inactive: -0.037 | inactive: -0.006 | inactive: 0.009 | inactive: -0.026
8 | CCDC51 (UniProt Q96ER9) | inactive: 0.001 | inactive: -0.008 | inactive: 0.027 | inactive: -0.005 | inactive: 0.002 | inactive: -0.009 | active: 0.262 | active: -0.422 | inactive: -0.034 | inactive: -0.072 | inactive: 0.127 | inactive: -0.037 | inactive: -0.001 | inactive: 0.008 | inactive: 0.038 | inactive: -0.008 | inactive: -0.001 | inactive: 0.016 | inactive: -0.066 | inactive: 0.022
9 | CCT3 (UniProt P49368) | inactive: -0.021 | inactive: 0.005 | inactive: -0.037 | inactive: 0.015 | inactive: -0.004 | inactive: -0.013 | inactive: 0 | inactive: -0.001 | inactive: 0.001 | inactive: -0.017 | inactive: 0.015 | inactive: 0.042 | inactive: -0.026 | inactive: -0.016 | inactive: 0.013 | inactive: -0.006 | inactive: -0.014 | inactive: 0.007 | inactive: 0 | inactive: -0.016
10 | CCNB2 (UniProt O95067) | inactive: 0.04 | inactive: -0.008 | inactive: 0.06 | inactive: 0.037 | inactive: -0.072 | inactive: -0.059 | inactive: -0.085 | inactive: 0.011 | inactive: 0.038 | inactive: 0.078 | inactive: 0.046 | inactive: 0.027 | inactive: 0.028 | inactive: -0.044 | inactive: 0 | inactive: 0.039 | inactive: 0.032 | inactive: -0.076 | inactive: 0.031 | inactive: 0.084
11 | CD47 (UniProt Q08722) | inactive: 0.008 | inactive: -0.028 | inactive: -0.011 | inactive: 0.019 | inactive: 0.055 | inactive: -0.037 | inactive: -0.133 | inactive: 0.073 | inactive: 0.05 | inactive: -0.003 | inactive: -0.076 | inactive: 0.074 | inactive: 0.014 | inactive: -0.105 | inactive: 0.022 | inactive: 0.008 | inactive: -0.094 | inactive: -0.009 | inactive: 0.033 | inactive: 0.019
12 | CAVIN1 (UniProt Q6NZI2) | inactive: 0.015 | inactive: 0.019 | inactive: -0.006 | inactive: 0.024 | inactive: 0 | inactive: -0.016 | inactive: 0 | inactive: -0.052 | inactive: 0.032 | inactive: 0.01 | inactive: 0.029 | inactive: 0.039 | inactive: 0.03 | inactive: -0.034 | inactive: 0.034 | inactive: 0.015 | inactive: 0.045 | inactive: -0.003 | inactive: 0.023 | inactive: 0.006
13 | CCNC (UniProt P24863) | inactive: 0.22 | inactive: 0.046 | inactive: -0.026 | inactive: -0.017 | inactive: -0.079 | inactive: 0.029 | inactive: -0.211 | inactive: 0.135 | inactive: -0.001 | inactive: -0.062 | inactive: 0.182 | inactive: -0.079 | inactive: -0.018 | inactive: -0.073 | inactive: -0.052 | inactive: 0.041 | inactive: 0.039 | inactive: 0.009 | inactive: -0.05 | inactive: 0.017
14 | CAT (UniProt P04040) | inactive: 0.005 | inactive: -0.022 | inactive: -0.012 | inactive: 0.022 | inactive: 0.028 | inactive: -0.038 | inactive: -0.006 | inactive: 0.026 | inactive: 0.016 | inactive: 0 | inactive: -0.011 | inactive: 0.083 | inactive: -0.011 | inactive: -0.014 | inactive: 0.034 | inactive: -0.023 | inactive: -0.011 | inactive: -0.001 | inactive: 0.021 | inactive: -0.014
15 | CCDC97 (UniProt Q96F63) | inactive: 0.01 | inactive: 0.011 | inactive: -0.022 | inactive: 0.062 | inactive: -0.053 | inactive: -0.005 | inactive: 0.035 | inactive: -0.026 | inactive: 0.04 | inactive: -0.009 | inactive: 0.003 | inactive: 0.01 | inactive: 0.042 | inactive: -0.017 | inactive: 0.003 | inactive: 0.018 | inactive: -0.016 | inactive: -0.017 | inactive: 0.034 | inactive: -0.01
16 | CCNH (UniProt P51946) | inactive: -0.025 | inactive: 0.001 | inactive: -0.035 | inactive: 0.036 | inactive: 0.003 | inactive: -0.034 | inactive: 0.054 | inactive: -0.062 | inactive: -0.036 | inactive: 0.033 | inactive: 0.006 | inactive: 0.016 | inactive: -0.015 | inactive: 0.026 | inactive: -0.018 | inactive: 0.033 | inactive: -0.047 | inactive: -0.005 | inactive: -0.007 | inactive: 0.024

Complete entries from above. Order of values: log2 fold change (vemurafenib) | log2 fold change [1] | log2 fold change (barasertib) | log2 fold change [2] | log2 fold change (volasertib) | log2 fold change [3] | log2 fold change [4] | log2 fold change [5] | log2 fold change (saracatinib) | log2 fold change (sotrastaurin) | log2 fold change (alvocidib) | log2 fold change (Tubastatin A) | log2 fold change [6] | log2 fold change (defactinib) | log2 fold change [7] | log2 fold change (encorafenib) | log2 fold change [8] | log2 fold change (alisertib) | log2 fold change [9] | log2 fold change (gefitinib)
CD47 (UniProt Q08722) in the list: inactive: 0.008 | inactive: -0.028 | inactive: -0.011 | inactive: 0.019 | inactive: 0.055 | inactive: -0.037 | inactive: -0.133 | inactive: 0.073 | inactive: 0.05 | inactive: -0.003 | inactive: -0.076 | inactive: 0.074 | inactive: 0.014 | inactive: -0.105 | inactive: 0.022 | inactive: 0.008 | inactive: -0.094 | inactive: -0.009 | inactive: 0.033 | inactive: 0.019
CCDC47 (UniProt Q96A33) in the list: inactive: 0.011 | inactive: 0.032 | inactive: 0.002 | inactive: 0.024 | inactive: 0.014 | inactive: 0.018 | inactive: -0.02 | inactive: -0.09 | inactive: -0.003 | inactive: 0.007 | inactive: 0.009 | inactive: 0.016 | inactive: -0.015 | inactive: 0.004 | inactive: -0.028 | inactive: -0.045 | inactive: -0.037 | inactive: 0.037 | inactive: -0.035 | inactive: -0.011
